Record: PubChem BioAssay AID1259254 (NCATS, 2017)
Purpose: 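Genome-wide screen for genes that prevent DNA re-replication in cancer cells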 (primary screen). Cells: human HCT116 colorectal cancer cells. Reagents: single siRNA against human genes. Time to read-out: 3 days. Read-out: 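Nuclei stained with Hoechst and imaged; cell-cycle phase assigned by DNA content; G2 share scaled per plate, non-targeting siRNA 0%, GMNN siRNA 100%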. Direction: G2 robust z-score and G2 cells, % of GMNN control: higher = more G2 cells, more excess DNA replication. Hit rule: 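Active siRNAs have a G2 robust z of 5 or more median absolute deviations over the median, which in these data means about 38% or higher of GMNN control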.
This is a random part of about 59,000 deposited reagents. In the full data, about 1,550 (2.6%) got an active call. 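G2 share is only a proxy for re-replication; each gene was hit by three separate siRNAs, and active genes were retested.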 Reagents against one gene are numbered here. Further read-outs or replicates are left out here. The record does not give: the amount of reagent.

After knock-down of LACTB #1 the results were G2 robust z-score -0.217; G2 cells, % of GMNN control 1.44; inactive.
Depletion of LACTB #2 resulted in: G2 robust z-score -0.538; G2 cells, % of GMNN control -0.82; inactive.
With knock-down of LACTB #3, the screen gave G2 robust z-score -0.223; G2 cells, % of GMNN control 1.4; inactive.
Silencing of OSER1 #1 gave: G2 robust z-score 2.26; G2 cells, % of GMNN control 18.8; inactive.
For OSER1 #2, the values are G2 robust z-score 0.597; G2 cells, % of GMNN control 7.17; inactive.
OSER1 #3 gave G2 robust z-score 1.31; G2 cells, % of GMNN control 12.2; inactive.
With knock-down of METTL18 #1 the results were G2 robust z-score 0.313; G2 cells, % of GMNN control 5.17; inactive.
For METTL18 #2 the deposit lists G2 robust z-score 1.25; G2 cells, % of GMNN control 11.7; inactive.
For METTL18 #3, the entry reads G2 robust z-score 3.46; G2 cells, % of GMNN control 27.3; inactive.
FAM74A3 #1 scored G2 robust z-score -0.809; G2 cells, % of GMNN control -2.73; inactive.
FAM74A3 #2 scored G2 robust z-score 2.9; G2 cells, % of GMNN control 23.4; inactive.
For FAM74A3 #3, the values are G2 robust z-score 0.315; G2 cells, % of GMNN control 5.18; inactive.
For OR51G2 #1, the entry reads G2 robust z-score 0.152; G2 cells, % of GMNN control 4.04; inactive.
Knock-down of OR51G2 #2 gave: G2 robust z-score 0.0271; G2 cells, % of GMNN control 3.16; inactive.
For OR51G2 #3, the values are G2 robust z-score 0.83; G2 cells, % of GMNN control 8.81; inactive.
After knock-down of LINC02908 #1, the record shows G2 robust z-score -0.481; G2 cells, % of GMNN control -0.414; inactive.
LINC02908 #2 showed G2 robust z-score -0.104; G2 cells, % of GMNN control 2.24; inactive.
Against LINC02908 #3 the deposit lists G2 robust z-score 2.41; G2 cells, % of GMNN control 19.9; inactive.
Against CSF1 #1, the entry reads G2 robust z-score -0.159; G2 cells, % of GMNN control 1.85; inactive.
CSF1 #2 scored G2 robust z-score 0.432; G2 cells, % of GMNN control 6.01; inactive.
With knock-down of CSF1 #3, the screen gave G2 robust z-score -0.216; G2 cells, % of GMNN control 1.45; inactive.
Depletion of TRMT61A #1 resulted in: G2 robust z-score 0.718; G2 cells, % of GMNN control 8.02; inactive.
TRMT61A #2 scored G2 robust z-score 0.624; G2 cells, % of GMNN control 7.36; inactive.
Against TRMT61A #3, the values are G2 robust z-score -0.731; G2 cells, % of GMNN control -2.18; inactive.

A run of entries from the list above:
TRMT61A #1 — G2 robust z-score = 0.718; G2 cells, % of GMNN control = 8.02; Outcome = inactive
TRMT61A #2 — G2 robust z-score = 0.624; G2 cells, % of GMNN control = 7.36; Outcome = inactive
TRMT61A #3 — G2 robust z-score = -0.731; G2 cells, % of GMNN control = -2.18; Outcome = inactive
